Laboratory results: patent US4760148A, “5-aralkyl substituted 2H-benzotriazoles and stabilized compositions” (Ciba-Geigy Corporation, priority 1985, dated 1988)

Experiment: Retention of gloss after outdoor exposure in Florida
Details: outdoors in Florida, 12 months; two parts by weight additive; without stabilizer 30

Compared with `CC(C)(c1ccccc1)c1cc(-n2nc3ccccc3n2)c(O)c(C(C)(C)c2ccccc2)c1` [Compound F, 2-[2-hydroxy-3,5-di-(alpha,alpha-dimethylbenzyl)phenyl]-2 H-benzotriazole, reference compound], `CC(C)(C)CC(C)(C)c1cc(-n2nc3ccc(C(C)(C)c4ccccc4)cc3n2)c(O)c(C(C)(C)c2ccccc2)c1` [Example 22, 5-alpha,alpha-Dimethylbenzyl-2-(2-hydroxy-3-alpha,alpha-dimethylbenzyl-5-tert-octylphenyl)-2H-benzotriazole] is lower in “% Retention of Original Gloss” value: 79% for the first, 73% for the second.

Going from `CCC(C)(C)c1cc(-n2nc3ccc(C(C)(C)c4ccccc4)cc3n2)c(O)c(C(C)(C)CC)c1` [Example 23] to `CC(C)(C)CC(C)(C)c1cc(-n2nc3ccc(C(C)(C)c4ccccc4)cc3n2)c(O)c(C(C)(C)CC(C)(C)C)c1` [Example 24, 5-alpha,alpha-Dimethylbenzyl-2-(2-hydroxy-3,5-di-tert-octylphenyl)-2H-benzotriazole], the “% Retention of Original Gloss” value rises from 76% to 82%.

Experiment: Retention of original gloss after exposure in the QUV apparatus
Details: ultraviolet light and humidity, 876 hours

Compared with `CCC(C)(C)c1cc(-n2nc3ccccc3n2)c(O)c(C(C)(C)CC)c1` [Compound B, 2(2-hydroxy-3,5-di-tert-amylphenyl)-2H--benzotriazole, reference compound], `CC(C)(C)CC(C)(C)c1cc(-n2nc3ccccc3n2)c(O)c(C(C)(C)c2ccccc2)c1` [Compound G, 2-[2-hydroxy-3-(alpha,alpha-dimethylbenzyl)-5-tert-octylphenyl]-2H-benzotriazole, reference compound] is lower in “% Retention of Original Gloss” value: 73% for the first, 67% for the second.

Going from `CC(C)(c1ccccc1)c1cc(-n2nc3ccccc3n2)c(O)c(C(C)(C)c2ccccc2)c1` [Compound F, 2-[2-hydroxy-3,5-di-(alpha,alpha-dimethylbenzyl)phenyl]-2 H-benzotriazole, reference compound] to `CC(C)(c1ccccc1)c1cc(-n2nc3ccc(Cc4ccccc4)cc3n2)c(O)c(C(C)(C)c2ccccc2)c1` [Example 26, 5-Benzyl-2-[2-hydroxy-3,5-di-(alpha,alpha-dimethylbenzyl)phenyl]-2H-benzotriazole], the “% Retention of Original Gloss” value rises from 60% to 77%.

Compared with `CC(C)(C)c1cc(-n2nc3ccc(C(C)(C)c4ccccc4)cc3n2)c(O)c(C(C)(C)C)c1` [Example 7, 5-alpha,alpha-Dimethylbenzyl-2-(2-hydroxy-3,5-di-tert-butylphenyl)-2H-benzotriazole], `CC(c1ccccc1)c1ccc2nn(-c3cc(C(C)(C)c4ccccc4)cc(C(C)(C)c4ccccc4)c3O)nc2c1` (stereo not drawn) [Example 25, 5-alpha-Methylbenzyl-2-[2-hydroxy-3,5-di-(alpha,alpha-dimethylbenzyl)phenyl]-2H-benzotriazole] is lower in “% Retention of Original Gloss” value: 71% for the first, 46% for the second.
